The subject of the series is germ-free mice. The series can be described thus: Germ-free mice on a diet deficient in tyrosine and queuine, queuine added to the diet (Marks & Farkas). It is filed as in vivo.

Structures are written as SMILES.

Take `Nc1nc2[nH]cc(CN[C@H]3C=C[C@H](O)[C@@H]3O)c2c(=O)[nH]1` [queuine, 2-amino-5-((((1S,4S,5R)-4,5-dihydroxy-2-cyclopenten-1-yl)amino)methyl)-1,7-dihydro-4H-pyrrolo (2,3-d) pyrimidin-4-one]: the “germ free mouse's daily dietary queuine requirement (upper bound)” value (27.7 ng/mL x 7 mL liquid diet per day) was found to be 193.9 ng. Moreover, the “daily dietary queuine requirement per body weight” value (mouse weight 0.04 kg) is listed as “approximately 0.00485 mg/kg per day”.
